Laboratory results: article doi:10.1101/2020.07.11.196790

Chains of the proteins cited; added tags and fusions are not shown.
UniProt Q86WV6: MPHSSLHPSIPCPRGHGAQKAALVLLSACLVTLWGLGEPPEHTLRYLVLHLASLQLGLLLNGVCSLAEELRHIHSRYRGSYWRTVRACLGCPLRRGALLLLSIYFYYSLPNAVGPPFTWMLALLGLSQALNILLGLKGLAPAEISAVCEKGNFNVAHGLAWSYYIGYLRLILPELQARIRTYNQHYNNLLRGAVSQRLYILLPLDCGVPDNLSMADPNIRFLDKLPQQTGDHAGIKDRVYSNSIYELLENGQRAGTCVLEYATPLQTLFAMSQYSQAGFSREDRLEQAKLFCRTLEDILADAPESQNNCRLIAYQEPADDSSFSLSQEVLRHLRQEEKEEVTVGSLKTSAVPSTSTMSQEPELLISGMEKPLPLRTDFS

Key:
[1] = target: Flag-STING-HA (Stimulator of Interferon Genes) (human) (UniProt Q86WV6); assay: affinity purification with mass spectrometry
[2] = target: Flag-STING-HA (Stimulator of Interferon Genes) (human), Q86WV6; assay: affinity purification with mass spectrometry; conditions: remark: other sources report otherwise

binding [1]: binds
B1: TMEM43 (protein, UniProt Q9BTV4 1-400)
chain: MAANYSSTSTRREHVKVKTSSQPGFLERLSETSGGMFVGLMAFLLSFYLIFTNEGRALKTATSLAEGLSLVVSPDSIHSVAPENEGRLVHIIGALRTSKLLSDPNYGVHLPAVKLRRHVEMYQWVETEESREYTEDGQVKKETRYSYNTEWRSEIINSKNFDREIGHKNPSAMAVESFMATAPFVQIGRFFLSSGLIDKVDNFKSLSLSKLEDPHVDIIRRGDFFYHSENPKYPEVGDLRVSFSYAGLSGDDPDLGPAHVVTVIARQRGDQLVPFSTKSGDTLLLLHHGDFSAEEVFHRELRSNSMKTWGLRAAGWMAMFMGLNLMTRILYTLVDWFPVFRDLVNIGLKAFAFCVATSLTLLTVAAGWLFYRPLWALLIAGLALVPILVARTRVPAKKLE

binding [2]: no binding
B2: TANK-binding kinase 1, Q9UHD2 1-729 (protein)
chain: MQSTSNHLWLLSDILGQGATANVFRGRHKKTGDLFAIKVFNNISFLRPVDVQMREFEVLKKLNHKNIVKLFAIEEETTTRHKVLIMEFCPCGSLYTVLEEPSNAYGLPESEFLIVLRDVVGGMNHLRENGIVHRDIKPGNIMRVIGEDGQSVYKLTDFGAARELEDDEQFVSLYGTEEYLHPDMYERAVLRKDHQKKYGATVDLWSIGVTFYHAATGSLPFRPFEGPRRNKEVMYKIITGKPSGAISGVQKAENGPIDWSGDMPVSCSLSRGLQVLLTPVLANILEADQEKCWGFDQFFAETSDILHRMVIHVFSLQQMTAHKIYIHSYNTATIFHELVYKQTKIISSNQELIYEGRRLVLEPGRLAQHFPKTTEENPIFVVSREPLNTIGLIYEKISLPKVHPRYDLDGDASMAKAITGVVCYACRIASTLLLYQELMRKGIRWLIELIKDDYNETVHKKTEVVITLDFCIRNIEKTVKVYEKLMKINLEAAELGEISDIHTKLLRLSSSQGTIETSLQDIDSRLSPGGSLADAWAHQEGTHPKDRNVEKLQVLLNCMTEIYYQFKKDKAERRLAYNEEQIHKFDKQKLYYHATKAMTHFTDECVKKYEAFLNKSEEWIRKMLHLRKQLLSLTNQCFDIEEEVSKYQEYTNELQETLPQKMFTASSGIKHTMTPIYPSSNTLVEMTLGMKKLKEEMEGVVKELAENNHILERFGSLTMDGGLRNVDCL

binding [1]: binds
B3: HMGB2 (protein, UniProt P26583 1-209)
chain: MGKGDPNKPRGKMSSYAFFVQTCREEHKKKHPDSSVNFAEFSKKCSERWKTMSAKEKSKFEDMAKSDKARYDREMKNYVPPKGDKKGKKKDPNAPKRPPSAFFLFCSEHRPKIKSEHPGLSIGDTAKKLGEMWSEQSAKDKQPYEQKAAKLKEKYEKDIAAYRAKGKSEAGKKGPGRPTGSKKKNEPEDEEEEEEEEDEDEEEEDEDEE

Results are given in words; binding and its absence hold for the method and conditions named. In cells and extracts the contact can be indirect. These calls come from enrichment with a bait or labelling near it, and not all partners need be listed. For part of these data: No binding means not detected with the bait. One block for each binder: values may come before it.
